# Results published in patent EP0617288B1, “Long emission wavelength chemiluminescent compounds and their use in test assays” (Novartis AG, priority 1993, dated 1994).
# Assay: Light emitting efficiency on Berthold luminometer (MLA-I) with BG-38 filter
# Assay type: physicochemical
# Conditions: for Total Counts (RLU's)/2sec amount flashed (pg): 2 seconds integration, mean of duplicate; for RLU's/mol (1 x E20): counts/mol calculated from quantity of 2.5 pg
Molecule,Total Counts (RLU's)/2sec amount flashed (pg) (0.25 pg flashed),Total Counts (RLU's)/2sec amount flashed (pg) (2.5 pg flashed),Total Counts (RLU's)/2sec amount flashed (pg) (25.0 pg flashed),RLU's/mol (1 x E20)
"COc1ccc2c(c1)c(C(=O)Oc1c(C)cc(C(=O)OCc3ccccc3)cc1C)c1cc3ccccc3cc1[n+]2C [2-MeO-LEAE-Bz, (4-Benzyloxycarbonyl-2,6-dimethyl)phenyl 2-Methoxy-5-methyl-benz[b]acridinium-12-carboxylate Fluorosulfonate]","27,810 RLU's","223,995 RLU's","2,140,890 RLU's",0.59 RLU's/mol (1 x E20)
"COc1ccc2c(c1)c(C(=O)Oc1c(C)cc(C(=O)ON3C(=O)CCC3=O)cc1C)c1cc3ccccc3cc1[n+]2CCS(=O)(=O)[O-] [2-MeO-NSE-LEAE-NHS, (2,6-Dimethyl-4-N-succinimidyloxycarbonyl)phenyl 2-Methoxy-5-(2-sulfoethyl)-benz[b]acridinium-12-carboxylate]","14,853 RLU's","145,403 RLU's","1,503,100 RLU's",0.38 RLU's/mol (1 x E20)
"CCOc1ccc2c(C(=O)Oc3c(C)cc(C(=O)OCc4ccccc4)cc3C)c3cc4ccccc4cc3[n+](C)c2c1 [3-EtO-LEAE-Bz, (4-Benzyloxycarbonyl-2,6-dimethyl)phenyl 3-Ethoxy-5-methyl-benz[b]acridinium-12-carboxylate Fluorosulfonate]","93,635 RLU's","883,785 RLU's","6,364,935 RLU's",2.4 RLU's/mol (1 x E20)
"COc1ccc2c(C(=O)Oc3c(C)cc(C(=O)OCc4ccccc4)cc3C)c3ccccc3[n+](C)c2c1 [3-MeO-DMAE-Bz, (4-Benzyloxycarbonyl-2,6-dimethyl)phenyl 3-Methoxy-10-methyl-acridinium-9-carboxylate Fluorosulfonate, reference compound]",–,"54,760 RLU's","523,380 RLU's",0.13 RLU's/mol (1 x E20)
"Cc1cc(C(=O)OCc2ccccc2)cc(C)c1OC(=O)c1c2ccccc2[n+](C)c2ccc3ccccc3c12 [ABAC, (4-Benzyloxycarbonyl-2,6-dimethyl)phenyl 5-methyl-benz[a]acridinium-12-carboxylate methosulfate, reference compound]",–,"23,600 RLU's","143,400 RLU's",0.058 RLU's/mol (1 x E20)
"CC(C)c1cc(C(=O)OCc2ccccc2)cc(C(C)C)c1OC(=O)c1c2ccccc2[n+](C)c2cc3ccccc3cc12 [DIP-LEAE-Bz, (4-Benzyloxycarbonyl-2,6-diisopropyl)phenyl 5-Methyl-benz[b]acridinium-12-carboxylate Fluorosulfonate]","29,930 RLU's","240,610 RLU's","2,413,320 RLU's",0.66 RLU's/mol (1 x E20)
"COc1ccc(N(C(=O)c2c3ccccc3[n+](C)c3cc4ccccc4cc23)S(=O)(=O)c2cccc(C(=O)OCc3ccccc3)c2)cc1 [LEAC-Bz, N-(4-Methoxyphenyl)-N-[3-(benzyloxycarbonyl)phenylsulfonyl] 5-Methyl-benz[b]acridinium-12-carboxamide Fluorosulfonate]","79,873 RLU's","767,553 RLU's","6,312,163 RLU's",2.4 RLU's/mol (1 x E20)
"Cc1cc(C(=O)OCc2ccccc2)cc(C)c1OC(=O)c1c2ccccc2[n+](C)c2cc3ccccc3cc12 [LEAE-Bz, (4-Benzyloxycarbonyl-2,6-dimethyl)phenyl 5-Methyl-benz[b]acridinium-12-carboxylate Fluorosulfonate]","105,857 RLU's","1,037,943 RLU's","9,037,063 RLU's",2.6 RLU's/mol (1 x E20)
"Cc1cc(C(=O)OCc2ccccc2)cc(C)c1OC(=O)c1c2ccccc2[n+](CCCS(=O)(=O)[O-])c2cc3ccccc3cc12 [NSP-LEAE-Bz, (4-Benzyloxycarbonyl-2,6-dimethyl)phenyl 5-(3-Sulfopropyl)-benz[b]acridinium-12-carboxylate]","22,715 RLU's","212,485 RLU's","2,250,520 RLU's",0.54 RLU's/mol (1 x E20)
"(4-Benzyloxycarbonyl-2,6-diisopropyl)phenyl 10-Methyl-acridinium-9-carboxylate Fluorosulfonate [DIPAE-Bz, reference compound]","82,115 RLU's","845,660 RLU's","6,041,380 RLU's",2.1 RLU's/mol (1 x E20)
